# Publication doi:10.1101/2020.05.30.124925
# The chains behind the UniProt entries cited, without tags or fusion partners.
# UniProt P38903: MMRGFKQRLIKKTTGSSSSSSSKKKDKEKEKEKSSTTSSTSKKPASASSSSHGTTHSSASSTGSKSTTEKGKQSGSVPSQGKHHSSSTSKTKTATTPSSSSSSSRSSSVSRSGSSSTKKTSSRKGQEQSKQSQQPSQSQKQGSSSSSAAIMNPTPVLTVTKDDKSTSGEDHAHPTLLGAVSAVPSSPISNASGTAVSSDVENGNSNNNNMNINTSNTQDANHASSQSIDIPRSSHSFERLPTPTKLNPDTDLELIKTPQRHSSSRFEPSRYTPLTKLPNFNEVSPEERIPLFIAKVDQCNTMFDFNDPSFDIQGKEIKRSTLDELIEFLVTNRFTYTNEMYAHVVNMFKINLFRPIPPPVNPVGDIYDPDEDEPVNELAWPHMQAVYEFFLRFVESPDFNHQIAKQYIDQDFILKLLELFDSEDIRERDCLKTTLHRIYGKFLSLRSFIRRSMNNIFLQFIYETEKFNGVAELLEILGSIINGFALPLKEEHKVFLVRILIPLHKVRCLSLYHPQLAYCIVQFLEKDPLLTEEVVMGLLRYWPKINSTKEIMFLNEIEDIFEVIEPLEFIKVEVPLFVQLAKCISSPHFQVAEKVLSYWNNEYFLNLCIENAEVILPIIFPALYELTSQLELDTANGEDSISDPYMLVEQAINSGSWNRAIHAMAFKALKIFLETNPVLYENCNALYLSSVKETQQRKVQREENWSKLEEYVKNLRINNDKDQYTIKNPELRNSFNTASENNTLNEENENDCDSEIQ
# Results are given in words; binding and its absence hold for the method and conditions named. Binding seen in cells or lysates may run through a third protein. Here binding means that the protein was enriched with, or labelled near, the bait; the list need not be complete. A no says only that the protein was not detected with the bait. Tags and fused reporters may be left off the sequences shown.
# B1: Rck2-3A (L550A/L553A/E555A)-protA-H3-HA (protein, UniProt P38623 1-610)
# chain: MLKIKALFSKKKPDQADLSQESKKPFKGKTRSSGTNNKDVSQITSSPKKSFQDKNIVQYPSVVADDHHMKSLTDELVTTIDSDSSPSDNITTENVETVTSVPAIDVHESSEGQLSSDPLISDESLSEQSEIISDIQDDSTDDDNMEDEIPEKSFLEQKELIGYKLINKIGEGAFSKVFRAIPAKNSSNEFLTKNYKAVAIKVIKKADLSSINGDHRKKDKGKDSTKTSSRDQVLKEVALHKTVSAGCSQIVAFIDFQETDSYYYIIQELLTGGEIFGEIVRLTYFSEDLSRHVIKQLALAVKHMHSLGVVHRDIKPENLLFEPIEFTRSIKPKLRKSDDPQTKADEGIFTPGVGGGGIGIVKLADFGLSKQIFSKNTKTPCGTVGYTAPEVVKDEHYSMKVDMWGIGCVLYTMLCGFPPFYDEKIDTLTEKISRGEYTFLKPWWDEISAGAKNAVAKLLELEPSKRYDIDQFLDDPWLNTFDCLPKEGESSQKKAGTSERRHPHKKQFQLFQRDSSLLFSPAAVAMRDAFDIGNAVKRTEEDRMGTRGGAGSAAADEELEDSYSGAQGDEQLEQNMFQLTLDTSTILQRRKKVQENDVGPTIPISATIRE
# Target: Rts1-HKMT-myc (S. cerevisiae) (UniProt P38903)
# Experiment: proximity labelling
binder,measurement,value
B1,binding,no binding
